Results: doi:10.1101/2021.09.16.460581
These are yes or no findings as the source states them, for the method shown. Binding seen in cells or lysates may run through a third protein. Some binding calls cover weakened binding; strength is not graded here.

Experiments:
[1] = target: T1, Ulp2-VN/VC (S. cerevisiae) (UniProt P40537); experiment: split reporter
T1 sequence: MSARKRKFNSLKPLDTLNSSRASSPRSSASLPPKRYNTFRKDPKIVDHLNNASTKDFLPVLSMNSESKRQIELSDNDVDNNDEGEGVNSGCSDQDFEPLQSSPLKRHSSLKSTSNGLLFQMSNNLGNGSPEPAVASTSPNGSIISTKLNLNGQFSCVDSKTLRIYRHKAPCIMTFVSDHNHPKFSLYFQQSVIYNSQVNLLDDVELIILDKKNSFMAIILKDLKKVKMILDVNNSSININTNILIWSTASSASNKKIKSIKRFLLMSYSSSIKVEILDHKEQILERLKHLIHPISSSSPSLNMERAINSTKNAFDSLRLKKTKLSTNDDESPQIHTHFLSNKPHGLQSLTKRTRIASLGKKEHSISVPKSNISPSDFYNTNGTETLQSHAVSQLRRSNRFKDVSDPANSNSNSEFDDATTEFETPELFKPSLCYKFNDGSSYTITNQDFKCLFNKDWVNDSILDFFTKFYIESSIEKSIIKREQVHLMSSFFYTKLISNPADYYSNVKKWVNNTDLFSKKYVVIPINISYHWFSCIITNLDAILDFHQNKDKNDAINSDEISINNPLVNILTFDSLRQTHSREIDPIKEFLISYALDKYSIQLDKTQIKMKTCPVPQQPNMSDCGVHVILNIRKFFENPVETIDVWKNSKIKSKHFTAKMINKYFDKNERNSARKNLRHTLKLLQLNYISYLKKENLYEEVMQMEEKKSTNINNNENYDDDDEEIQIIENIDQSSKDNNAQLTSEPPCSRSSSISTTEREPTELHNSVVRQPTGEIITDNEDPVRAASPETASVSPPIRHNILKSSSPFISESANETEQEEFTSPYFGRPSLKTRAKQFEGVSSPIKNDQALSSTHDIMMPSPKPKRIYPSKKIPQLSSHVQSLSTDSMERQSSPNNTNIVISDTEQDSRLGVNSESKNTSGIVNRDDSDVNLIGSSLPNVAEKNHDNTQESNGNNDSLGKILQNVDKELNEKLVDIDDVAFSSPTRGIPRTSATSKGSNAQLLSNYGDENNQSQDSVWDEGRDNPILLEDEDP

[2] = target: T2, Mrc1-VC/VN (S. cerevisiae) (UniProt P25588); experiment: split reporter
T2 sequence: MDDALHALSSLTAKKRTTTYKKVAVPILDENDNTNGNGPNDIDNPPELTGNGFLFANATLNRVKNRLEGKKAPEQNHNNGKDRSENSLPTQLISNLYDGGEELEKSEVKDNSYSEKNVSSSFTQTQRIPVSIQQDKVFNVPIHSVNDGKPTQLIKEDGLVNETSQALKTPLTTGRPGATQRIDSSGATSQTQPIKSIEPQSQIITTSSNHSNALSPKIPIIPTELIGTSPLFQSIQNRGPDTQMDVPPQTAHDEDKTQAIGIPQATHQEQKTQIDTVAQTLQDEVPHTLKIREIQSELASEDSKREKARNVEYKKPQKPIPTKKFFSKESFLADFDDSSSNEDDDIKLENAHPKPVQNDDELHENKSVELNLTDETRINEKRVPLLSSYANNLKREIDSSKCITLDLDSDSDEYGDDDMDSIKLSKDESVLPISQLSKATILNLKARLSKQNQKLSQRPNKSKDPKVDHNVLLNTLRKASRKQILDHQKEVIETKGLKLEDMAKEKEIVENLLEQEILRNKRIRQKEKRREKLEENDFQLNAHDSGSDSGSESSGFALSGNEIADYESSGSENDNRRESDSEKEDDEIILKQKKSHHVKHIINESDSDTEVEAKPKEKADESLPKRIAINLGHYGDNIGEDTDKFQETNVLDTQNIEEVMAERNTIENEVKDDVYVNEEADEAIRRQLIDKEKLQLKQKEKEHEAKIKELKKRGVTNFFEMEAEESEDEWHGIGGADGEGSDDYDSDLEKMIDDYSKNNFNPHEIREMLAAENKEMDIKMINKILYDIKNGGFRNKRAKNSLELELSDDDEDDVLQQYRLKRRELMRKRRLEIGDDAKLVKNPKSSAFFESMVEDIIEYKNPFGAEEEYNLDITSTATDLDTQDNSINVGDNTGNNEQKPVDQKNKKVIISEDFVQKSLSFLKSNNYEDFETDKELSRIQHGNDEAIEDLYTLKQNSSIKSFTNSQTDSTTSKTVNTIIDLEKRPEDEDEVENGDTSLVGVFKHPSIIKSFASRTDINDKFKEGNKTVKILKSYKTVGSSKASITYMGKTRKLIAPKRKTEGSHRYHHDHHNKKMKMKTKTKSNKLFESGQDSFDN

B1: Otu1-VN/VC (protein, UniProt P43558 1-301)
chain: MKLKVTGAGINQVVTLKQDATLNDLIEHINVDVKTMRFGYPPQRINLQGEDASLGQTQLDELGINSGEKITIESSDSNESFSLPPPQPKPKRVLKSTEMSIGGSGENVLSVHPVLDDNSCLFHAIAYGIFKQDSVRDLREMVSKEVLNNPVKFNDAILDKPNKDYAQWILKMESWGGAIEIGIISDALAVAIYVVDIDAVKIEKFNEDKFDNYILILFNGIHYDSLTMNEFKTVFNKNQPESDDVLTAALQLASNLKQTGYSFNTHKAQIKCNTCQMTFVGEREVARHAESTGHVDFGQNR
[1]
  binding: binds
[2]
  binding: binds
